Experimental data reported in patent US8334267B2, “Mangiferin calcium salts, the method for its preparation and its use” (Hainan Deze Drug Research Co., Ltd., priority 2007, dated 2012).

Test system: GK rats
Test: Efficacy in GK model (plasma glucose, insulin, lipids)
Assay type: in vivo, Goto-Kakizaki rats (GK)
Protocol: Rosiglitazone Hydrochloride tablets were purchased from Zhejiang wanma pharmaceutical Co., Ltd. Mangiferin and mangiferin calcium were suspended with 3% sodium carboxymethyl cellulose before use.
Goto-Kakizaki rats (GK) (16 weeks age, ♀ ♂) were purchased from Shanghai SLAC laboratory animal Co., Ltd. The animals were kept in IVC cages with temperature (22° C.). There are two rats in each cage.
Experimental group: GK rats group (n=10); mangiferin groups (20, 40, 80 mg/kg, each 10 rats); mangiferin calcium groups (10, 20, 40 mg/kg, each 10 rats); Rosiglitazone Hydrochloride group [3 mg/kg, n=10]. Test samples or vehicle control was given orally for 30 days. GK rats group were given vehicle.
The blood specimens were taken by abdominal aorta at the end of the test. Plasma glucose (GLU), insulin (INS), triglycerides (TG), total cholesterol (TC), high density lipoprotein (HDL), low density lipoprotein (LDL) were determined
GLU, TC, TG, HDL and LDL levels were determined using GF-D800 semi-auto chemist which was purchased from Shandong Gaomi Caihong Analytical Instrument Co., Ltd. Insulin: radioimmunoassay (RIA), γ counter counts. insulin RIA Kit was purchased from Shandong Weifang City three-dimensional (3V) Biological company.
Statistics: The results have been calculated as mean±SD ( x±SD) and comparisons of the data have been done by t-test.

Row | Compound | Weigh (10 mg/kg orally for 30 days) | Weigh (20 mg/kg orally for 30 days) | Weigh (40 mg/kg orally for 30 days) | Weigh (80 mg/kg orally for 30 days)
1 | O=c1c2cc(O)c(O)cc2oc2cc([O-])c([C@@H]3O[C@H](CO)[C@@H](O)[C@H](O)[C@H]3O)c(O)c12.O=c1c2cc([O-])c(O)cc2oc2cc(O)c([C@@H]3O[C@H](CO)[C@@H](O)[C@H](O)[C@H]3O)c(O)c12.[Ca+2] [Mangiferin calcium, mangiferin calcium] | 318.63 ± 16.94 g | 307.15 ± 13.67 g | 307.61 ± 13.88 g | 
2 | O=c1c2cc(O)c(O)cc2oc2cc(O)c(C3OC(CO)C(O)C(O)C3O)c(O)c12 (stereo not drawn) [Mangiferin] |  | 319.56 ± 21.50 g | 311.85 ± 10.40 g | 312.67 ± 10.43 g
